{"sequences": {"note": "Amino acid sequences for entries named in this document (tags omitted). A change or cut given only in a name is not applied to a line headed by its entry.", "UniProt Q569Z5": "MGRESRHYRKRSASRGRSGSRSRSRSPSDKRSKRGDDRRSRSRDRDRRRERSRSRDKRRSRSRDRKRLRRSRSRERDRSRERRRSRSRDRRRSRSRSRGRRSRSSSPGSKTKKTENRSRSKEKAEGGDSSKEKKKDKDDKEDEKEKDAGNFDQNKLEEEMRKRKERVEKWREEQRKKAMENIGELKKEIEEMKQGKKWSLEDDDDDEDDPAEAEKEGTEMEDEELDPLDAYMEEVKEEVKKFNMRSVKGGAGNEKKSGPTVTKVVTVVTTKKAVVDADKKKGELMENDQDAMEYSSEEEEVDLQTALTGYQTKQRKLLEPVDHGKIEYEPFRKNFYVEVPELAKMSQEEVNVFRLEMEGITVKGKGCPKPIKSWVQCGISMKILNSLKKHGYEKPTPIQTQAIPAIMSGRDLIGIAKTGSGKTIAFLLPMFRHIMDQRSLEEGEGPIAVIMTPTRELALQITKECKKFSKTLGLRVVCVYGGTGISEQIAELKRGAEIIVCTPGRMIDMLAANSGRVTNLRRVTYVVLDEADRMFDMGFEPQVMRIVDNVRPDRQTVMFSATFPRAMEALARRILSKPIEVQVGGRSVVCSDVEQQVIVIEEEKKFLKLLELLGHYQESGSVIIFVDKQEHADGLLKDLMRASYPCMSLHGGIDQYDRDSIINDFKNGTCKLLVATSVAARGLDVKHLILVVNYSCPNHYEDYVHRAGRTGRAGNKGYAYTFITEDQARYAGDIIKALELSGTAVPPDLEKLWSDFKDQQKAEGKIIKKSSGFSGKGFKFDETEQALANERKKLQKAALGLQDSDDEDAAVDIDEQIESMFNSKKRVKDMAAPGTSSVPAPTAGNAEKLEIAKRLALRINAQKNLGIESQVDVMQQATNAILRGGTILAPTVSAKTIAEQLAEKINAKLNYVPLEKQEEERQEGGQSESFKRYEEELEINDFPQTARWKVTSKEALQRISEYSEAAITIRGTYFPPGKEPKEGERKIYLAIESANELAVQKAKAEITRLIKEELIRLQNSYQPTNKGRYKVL", "UniProt Q501J7": "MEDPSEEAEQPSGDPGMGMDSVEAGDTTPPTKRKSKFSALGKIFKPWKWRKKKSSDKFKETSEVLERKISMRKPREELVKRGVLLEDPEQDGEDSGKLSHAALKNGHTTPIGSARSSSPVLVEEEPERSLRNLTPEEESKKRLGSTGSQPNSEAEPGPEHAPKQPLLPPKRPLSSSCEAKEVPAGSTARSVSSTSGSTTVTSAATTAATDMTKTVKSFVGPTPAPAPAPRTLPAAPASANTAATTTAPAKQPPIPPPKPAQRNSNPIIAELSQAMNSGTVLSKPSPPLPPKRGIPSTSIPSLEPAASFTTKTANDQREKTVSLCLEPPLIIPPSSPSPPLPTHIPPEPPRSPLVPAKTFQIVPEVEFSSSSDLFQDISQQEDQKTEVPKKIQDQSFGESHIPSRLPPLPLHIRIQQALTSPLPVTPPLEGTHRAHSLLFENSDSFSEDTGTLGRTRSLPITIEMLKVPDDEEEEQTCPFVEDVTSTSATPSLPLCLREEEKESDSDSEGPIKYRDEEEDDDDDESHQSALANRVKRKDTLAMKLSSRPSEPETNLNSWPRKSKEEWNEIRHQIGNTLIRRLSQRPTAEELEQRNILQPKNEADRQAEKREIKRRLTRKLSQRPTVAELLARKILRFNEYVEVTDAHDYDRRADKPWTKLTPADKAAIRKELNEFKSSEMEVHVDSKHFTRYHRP", "UniProt Q06138": "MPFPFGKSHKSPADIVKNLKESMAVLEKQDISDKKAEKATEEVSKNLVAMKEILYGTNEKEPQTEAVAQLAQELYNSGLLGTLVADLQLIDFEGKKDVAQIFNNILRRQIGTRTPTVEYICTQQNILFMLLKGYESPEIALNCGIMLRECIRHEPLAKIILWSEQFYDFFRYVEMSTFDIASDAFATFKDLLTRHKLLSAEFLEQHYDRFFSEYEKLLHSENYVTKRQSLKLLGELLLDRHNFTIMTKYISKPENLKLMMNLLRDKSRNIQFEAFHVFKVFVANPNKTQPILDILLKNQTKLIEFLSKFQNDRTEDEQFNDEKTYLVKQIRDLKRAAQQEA", "UniProt Q02819": "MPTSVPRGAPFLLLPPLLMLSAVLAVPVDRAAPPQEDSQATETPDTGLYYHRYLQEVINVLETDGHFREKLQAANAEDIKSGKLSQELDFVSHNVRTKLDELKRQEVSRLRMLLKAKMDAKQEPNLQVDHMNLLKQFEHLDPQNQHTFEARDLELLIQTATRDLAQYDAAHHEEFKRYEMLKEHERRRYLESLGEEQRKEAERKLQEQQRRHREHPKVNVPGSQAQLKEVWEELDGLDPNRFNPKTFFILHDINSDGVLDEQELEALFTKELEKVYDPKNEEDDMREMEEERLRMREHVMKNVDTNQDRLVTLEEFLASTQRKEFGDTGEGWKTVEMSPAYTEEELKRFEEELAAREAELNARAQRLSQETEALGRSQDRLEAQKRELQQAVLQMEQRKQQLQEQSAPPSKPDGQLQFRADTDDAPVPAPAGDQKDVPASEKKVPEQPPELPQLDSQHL", "UniProt P97820": "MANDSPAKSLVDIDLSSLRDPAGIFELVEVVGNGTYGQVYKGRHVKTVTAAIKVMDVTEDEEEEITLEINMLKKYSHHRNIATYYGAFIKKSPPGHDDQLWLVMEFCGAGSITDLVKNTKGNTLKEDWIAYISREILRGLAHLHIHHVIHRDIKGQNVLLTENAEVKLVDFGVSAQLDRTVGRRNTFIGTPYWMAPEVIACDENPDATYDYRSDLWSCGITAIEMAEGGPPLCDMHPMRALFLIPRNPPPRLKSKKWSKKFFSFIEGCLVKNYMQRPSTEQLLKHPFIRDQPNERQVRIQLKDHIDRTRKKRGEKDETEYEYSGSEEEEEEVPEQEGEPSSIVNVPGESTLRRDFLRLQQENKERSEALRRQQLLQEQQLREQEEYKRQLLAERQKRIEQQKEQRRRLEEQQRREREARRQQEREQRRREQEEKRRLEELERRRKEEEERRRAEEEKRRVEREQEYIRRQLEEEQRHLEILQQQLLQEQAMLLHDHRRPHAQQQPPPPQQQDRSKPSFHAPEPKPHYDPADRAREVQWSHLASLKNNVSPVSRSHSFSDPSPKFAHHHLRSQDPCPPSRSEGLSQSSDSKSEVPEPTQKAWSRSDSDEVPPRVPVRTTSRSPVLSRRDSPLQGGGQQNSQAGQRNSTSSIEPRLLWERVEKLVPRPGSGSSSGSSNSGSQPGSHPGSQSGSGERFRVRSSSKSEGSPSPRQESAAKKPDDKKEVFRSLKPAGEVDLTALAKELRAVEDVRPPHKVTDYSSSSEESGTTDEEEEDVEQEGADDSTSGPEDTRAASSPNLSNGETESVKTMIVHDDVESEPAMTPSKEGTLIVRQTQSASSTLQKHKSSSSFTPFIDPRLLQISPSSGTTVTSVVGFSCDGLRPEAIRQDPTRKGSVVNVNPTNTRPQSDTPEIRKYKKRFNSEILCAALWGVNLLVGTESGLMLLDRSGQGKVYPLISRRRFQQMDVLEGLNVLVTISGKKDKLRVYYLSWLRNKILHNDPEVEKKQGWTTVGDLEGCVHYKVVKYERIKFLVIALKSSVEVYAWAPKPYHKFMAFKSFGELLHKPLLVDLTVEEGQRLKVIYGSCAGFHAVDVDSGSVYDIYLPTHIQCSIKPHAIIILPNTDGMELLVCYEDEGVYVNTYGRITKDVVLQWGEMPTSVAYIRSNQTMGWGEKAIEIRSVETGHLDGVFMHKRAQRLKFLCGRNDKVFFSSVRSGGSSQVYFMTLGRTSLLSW", "UniProt Q505F5": "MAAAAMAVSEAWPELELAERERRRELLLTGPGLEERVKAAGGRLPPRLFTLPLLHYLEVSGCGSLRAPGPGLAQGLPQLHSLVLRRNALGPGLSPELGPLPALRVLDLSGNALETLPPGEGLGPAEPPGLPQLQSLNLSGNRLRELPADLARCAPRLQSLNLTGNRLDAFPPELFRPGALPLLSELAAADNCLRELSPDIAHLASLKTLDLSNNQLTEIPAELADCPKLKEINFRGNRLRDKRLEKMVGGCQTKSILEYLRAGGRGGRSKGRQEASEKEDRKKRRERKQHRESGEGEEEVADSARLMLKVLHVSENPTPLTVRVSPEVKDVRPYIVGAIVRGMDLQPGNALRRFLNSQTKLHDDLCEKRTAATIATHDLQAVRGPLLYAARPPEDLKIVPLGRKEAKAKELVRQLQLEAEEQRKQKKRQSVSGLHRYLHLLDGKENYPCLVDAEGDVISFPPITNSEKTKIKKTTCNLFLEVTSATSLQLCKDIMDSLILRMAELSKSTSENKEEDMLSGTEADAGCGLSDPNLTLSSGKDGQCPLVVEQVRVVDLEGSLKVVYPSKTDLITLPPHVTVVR", "UniProt Q09200": "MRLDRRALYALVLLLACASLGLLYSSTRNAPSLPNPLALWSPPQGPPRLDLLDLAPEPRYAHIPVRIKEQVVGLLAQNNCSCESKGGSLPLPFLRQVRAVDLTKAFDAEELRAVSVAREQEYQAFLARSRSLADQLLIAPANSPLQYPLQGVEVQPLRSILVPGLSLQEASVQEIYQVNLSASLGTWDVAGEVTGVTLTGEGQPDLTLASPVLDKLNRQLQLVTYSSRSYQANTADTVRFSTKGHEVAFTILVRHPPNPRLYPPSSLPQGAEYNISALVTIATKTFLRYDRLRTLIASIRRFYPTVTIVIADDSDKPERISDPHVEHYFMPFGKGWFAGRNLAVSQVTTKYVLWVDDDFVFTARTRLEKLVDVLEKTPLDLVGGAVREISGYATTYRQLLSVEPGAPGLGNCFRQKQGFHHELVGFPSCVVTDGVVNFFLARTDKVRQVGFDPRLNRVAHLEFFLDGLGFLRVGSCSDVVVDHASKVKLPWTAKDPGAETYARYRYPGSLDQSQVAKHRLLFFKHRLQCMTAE", "UniProt Q3UPF5": "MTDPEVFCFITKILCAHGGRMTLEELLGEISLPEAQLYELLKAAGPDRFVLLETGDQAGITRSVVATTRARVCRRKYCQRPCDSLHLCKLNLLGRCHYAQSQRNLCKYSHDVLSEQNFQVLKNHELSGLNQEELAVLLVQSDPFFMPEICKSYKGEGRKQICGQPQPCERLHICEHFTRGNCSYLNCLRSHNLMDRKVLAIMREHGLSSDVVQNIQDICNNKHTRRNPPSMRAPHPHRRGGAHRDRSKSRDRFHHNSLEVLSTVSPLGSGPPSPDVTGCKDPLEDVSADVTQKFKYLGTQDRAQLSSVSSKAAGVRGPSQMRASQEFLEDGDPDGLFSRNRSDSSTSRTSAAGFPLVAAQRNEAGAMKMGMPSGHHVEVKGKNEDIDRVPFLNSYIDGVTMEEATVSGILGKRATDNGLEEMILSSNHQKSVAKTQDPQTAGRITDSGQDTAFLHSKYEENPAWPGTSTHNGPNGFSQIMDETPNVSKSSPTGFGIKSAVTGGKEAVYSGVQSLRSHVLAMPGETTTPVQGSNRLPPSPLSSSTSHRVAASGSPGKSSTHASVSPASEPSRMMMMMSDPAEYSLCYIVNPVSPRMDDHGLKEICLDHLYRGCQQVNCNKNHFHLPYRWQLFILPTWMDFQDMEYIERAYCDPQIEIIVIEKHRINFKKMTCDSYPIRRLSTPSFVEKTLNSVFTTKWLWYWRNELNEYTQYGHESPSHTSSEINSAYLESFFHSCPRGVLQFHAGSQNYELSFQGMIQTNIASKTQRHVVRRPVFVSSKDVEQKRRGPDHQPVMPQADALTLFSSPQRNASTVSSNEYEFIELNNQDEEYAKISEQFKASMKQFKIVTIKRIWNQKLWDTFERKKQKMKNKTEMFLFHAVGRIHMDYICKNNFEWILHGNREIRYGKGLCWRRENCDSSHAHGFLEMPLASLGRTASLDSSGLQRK", "UniProt Q00PI9": "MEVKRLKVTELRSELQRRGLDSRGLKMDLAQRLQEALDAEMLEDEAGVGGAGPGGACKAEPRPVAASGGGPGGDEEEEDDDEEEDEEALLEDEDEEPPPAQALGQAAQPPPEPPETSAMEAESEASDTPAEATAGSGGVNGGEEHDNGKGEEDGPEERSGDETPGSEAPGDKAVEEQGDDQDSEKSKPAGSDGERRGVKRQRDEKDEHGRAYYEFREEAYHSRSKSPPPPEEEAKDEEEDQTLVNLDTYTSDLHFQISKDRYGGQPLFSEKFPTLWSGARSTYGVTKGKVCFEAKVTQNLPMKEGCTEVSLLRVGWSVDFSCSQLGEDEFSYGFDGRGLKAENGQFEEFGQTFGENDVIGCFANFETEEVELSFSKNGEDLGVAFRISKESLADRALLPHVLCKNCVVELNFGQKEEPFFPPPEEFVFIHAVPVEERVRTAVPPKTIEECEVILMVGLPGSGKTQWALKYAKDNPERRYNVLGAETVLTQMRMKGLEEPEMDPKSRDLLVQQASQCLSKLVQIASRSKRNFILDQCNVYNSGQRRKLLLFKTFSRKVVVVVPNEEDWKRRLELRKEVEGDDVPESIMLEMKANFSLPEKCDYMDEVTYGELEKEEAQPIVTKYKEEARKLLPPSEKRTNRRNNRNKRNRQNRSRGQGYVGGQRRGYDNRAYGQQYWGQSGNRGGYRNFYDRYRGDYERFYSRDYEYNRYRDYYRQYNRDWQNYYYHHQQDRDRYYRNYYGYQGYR"}, "source": "the supplement of paper PMC12819154", "about": "“High-throughput peptide-centric local stability assay extends protein–ligand identification to membrane proteins, tissues and bacteria” (Nature Structural & Molecular Biology, 2025)", "note": "Some of the results follow. Small differences around the control level are noise.", "data": [{"compound": "CN[C@@H]1C[C@H]2O[C@@](C)([C@@H]1OC)n1c3ccccc3c3c4c(c5c6ccccc6n2c5c31)C(=O)NC4 [staurosporine]", "experiment": "log2 fold change of pooled soluble protein (PISA), ligand vs vehicle (log2 ratio); higher = more thermally stabilized", "settings": "ligand concentration: 20 uM; assay format: PISA pool 52.9/55.5/58.6 C", "values": [{"target": "UniProt Q01730", "log2 fold change of pooled soluble protein": -0.121}, {"target": "UniProt Q3UHH2", "log2 fold change of pooled soluble protein": -0.0342}, {"target": "UniProt Q3UYV9", "log2 fold change of pooled soluble protein": 1.49}, {"target": "UniProt Q3URQ7", "log2 fold change of pooled soluble protein": 0.0357}, {"target": "UniProt Q3TDQ1", "log2 fold change of pooled soluble protein": 0.149}, {"target": "UniProt Q05421", "log2 fold change of pooled soluble protein": -0.0185}, {"target": "UniProt Q5DTM8", "log2 fold change of pooled soluble protein": -0.0133}, {"target": "UniProt Q4PZA2", "log2 fold change of pooled soluble protein": -0.0498}, {"target": "UniProt Q3U2P1", "log2 fold change of pooled soluble protein": -0.0185}, {"target": "UniProt Q569Z5", "log2 fold change of pooled soluble protein": -0.0865}, {"target": "UniProt Q3TFQ1", "log2 fold change of pooled soluble protein": -0.186}, {"target": "UniProt Q5NCR9", "log2 fold change of pooled soluble protein": -0.709}, {"target": "UniProt Q3UQ84", "log2 fold change of pooled soluble protein": -0.033}, {"target": "UniProt Q03265", "log2 fold change of pooled soluble protein": -0.0136}, {"target": "UniProt Q501J7", "log2 fold change of pooled soluble protein": 0.0771}, {"target": "UniProt Q3SXB8", "log2 fold change of pooled soluble protein": 0.0546}, {"target": "UniProt Q06138", "log2 fold change of pooled soluble protein": 0.0409}, {"target": "UniProt Q3UIA2", "log2 fold change of pooled soluble protein": -0.106}, {"target": "UniProt Q3TC72", "log2 fold change of pooled soluble protein": -0.507}, {"target": "UniProt Q5NBX1", "log2 fold change of pooled soluble protein": 0.0483}, {"target": "UniProt Q02819", "log2 fold change of pooled soluble protein": 0.0447}, {"target": "UniProt Q31125", "log2 fold change of pooled soluble protein": 0.205}, {"target": "UniProt P97820", "log2 fold change of pooled soluble protein": -0.195}, {"target": "UniProt Q18PI6", "log2 fold change of pooled soluble protein": 0.0895}, {"target": "UniProt Q3TLH4", "log2 fold change of pooled soluble protein": 0.0201}, {"target": "UniProt Q505F5", "log2 fold change of pooled soluble protein": 0.0538}, {"target": "UniProt Q09200", "log2 fold change of pooled soluble protein": -0.0571}, {"target": "UniProt Q3UPF5", "log2 fold change of pooled soluble protein": -0.0983}, {"target": "UniProt Q3UHC7", "log2 fold change of pooled soluble protein": -0.00031}, {"target": "UniProt Q07456", "log2 fold change of pooled soluble protein": 0.0712}, {"target": "UniProt Q00PI9", "log2 fold change of pooled soluble protein": 0.0687}, {"target": "UniProt Q05186", "log2 fold change of pooled soluble protein": 0.0376}, {"target": "UniProt Q3UUI3", "log2 fold change of pooled soluble protein": 0.0176}, {"target": "UniProt Q3V3Q7", "log2 fold change of pooled soluble protein": 0.195}, {"target": "UniProt Q08481", "log2 fold change of pooled soluble protein": 0.0555}, {"target": "UniProt P98064", "log2 fold change of pooled soluble protein": -0.0794}]}]}
